Source: patent US11246308B2, “Ice-free preservation of large volume tissue samples for viable, functional tissue banking” (TISSUE TESTING TECHNOLOGIES LLC, priority 2016, dated 2022)
Some of these results come from one statement about several compounds together.

How the values were obtained:
[1] = system: heart valve tissues (pulmonary artery, leaflet and cardiac muscle); assay: alamarBlue metabolic activity of heart valve tissues vitrified in 4 mL of solution (FIG. 1); assay type: cell-based; conditions: 0.6M sugar in DP6, VS49 and VS55
Description: In the following ice-free cryopreservation formulation supplementation experiments, disaccharides (trehalose and sucrose) are added to various vitrification formulations (VS49, DP6, and VS55) in the amounts shown in FIG. 1 and compared to a solution (without trehalose and/or sucrose) to access the effectiveness at inhibiting ice formation in various tissues.
Data shown in % of control VS55 results performed with the final cryoprotectant concentration added at 4° C., N=6, *p<0.05 by ANOVA or #T-test compared with no additive controls.
In this experiment, addition of either 600 mM trehalose or sucrose to VS49, DP6 and VS55 formulations was compared. The tissues were vitrified in 4 mL of solution. Trehalose supplementation increased leaflet viability in VS49 and VS55. Sucrose supplementation increased leaflet viability in all three formulations. […] This led to plans to test DP6 with sugars more thoroughly in later experiments. […]
Metabolic Activity—An alamarBlue™ assay will be used to evaluate the metabolic activity of control and treated tissue samples. […] Fluorescence was measured at an excitation wavelength of 544 nm and an emission wavelength of 590 nm. […] Control and experimental tissues were dried at the end of each experiment, weighed, and results expressed as relative fluorescence units (RFU)/mg tissue dry weight.

[2] = ice formation in VS55 supplemented with sugars stored at −80 C (FIG. 7); assay type: physicochemical; conditions: 30 mL samples
Description: In this experiment 30 mL samples of VS55 with increasing concentrations of sugars were placed in 50 mL plastic tubes and stored in a −80 C mechanical storage freezer for 7 days. The tubes were checked daily for ice formation. […] After one day 0.4 to 0.6M trehalose and 0.5-0.6M sucrose were free of ice, while after 7 days 0.5-0.6M trehalose and 0.6M sucrose groups were free of ice. Lower concentrations of these sugars may still be used for ice-free vitrification but more rapid cooling and warming will be needed because the risk of ice formation will be greater and nanowarming rather than convection warming may be needed. Specifically, FIG. 7 is photograph illustrating the ice formation in VS55 supplemented with sugars at −80° C.: Top left: VS55 with 0-0.6M sucrose at 24 hours; Top right: VS55 with 0-0.6M trehalose at 24 hours. […] Higher concentrations were clear without ice. Bottom left: VS55 with 0-0.6M sucrose at 7 days; and Bottom right: VS55 with 0-0.6M trehalose at 7 days. After a week at −80° C. the highest concentrations of sugars are still free of ice.

Structure (SMILES) | leaflet viability increases [1] | sugar concentrations in VS55 free of ice ([2]; after one day at −80 C) [M] | sugar concentrations in VS55 free of ice ([2]; after 7 days at −80 C) [M]
OC[C@H]1O[C@@](CO)(O[C@H]2O[C@H](CO)[C@@H](O)[C@H](O)[C@H]2O)[C@@H](O)[C@@H]1O [sucrose] | 2-3 fold | 0.5 to 0.6 | 
OC[C@H]1O[C@H](O[C@H]2O[C@H](CO)[C@@H](O)[C@H](O)[C@H]2O)[C@H](O)[C@@H](O)[C@@H]1O [trehalose] | 2-3 fold |  | 0.5 to 0.6
